Results are given in words; binding and its absence hold for the method and conditions named. In cells and extracts the contact can be indirect. Binding calls can cover weak binding; strength is not graded here.
Target: Integrin β1 (ITGβ1) cytoplasmic tail, wild type (UniProt P05556)
Experiment: pull-down; ITGβ1 tails immobilised on beads; lysates of CHO cells transfected with full length FLNA-GFP; buffer XT with 10 mM imidazole, beads washed three times; only the target purified

Chains of the proteins cited; added tags and fusions are not shown. Residues count along the entry.
UniProt P05556, residues 752-798: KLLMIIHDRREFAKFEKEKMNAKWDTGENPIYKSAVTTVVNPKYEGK

Full length human FLNA with C-terminal GFP, ΔIg20 (from UniProt P21333-1)
binding: binds

From article PMC7035669
